# Reference: PubChem BioAssay AID2685 (National Center for Advancing Translational Sciences (NCATS), 2010)
# The other results are listed elsewhere or left out. The main result of the screen is listed elsewhere. These columns were measured beside it and carry no call. Compounds called inactive in the main read-out are mostly missing here. Potencies come from curve fits of mixed quality, noted in brackets.
# Assay: qHTS Assay for Lipid Storage Modulators in Drosophila S3 Cells;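 as to cell number change: cells counted by Cell Tracker Red CMTPX staining in the red channel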
# Conditions: BODIPY lipid droplet fluorescence, 18-24 h; for cell number change: measured here: cell count max response, cells fed with added oleic acid
# Procedure, shortened: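 Drosophila S3 cells got compounds at several concentrations plus oleic acid (400 uM solution). Laser-scanning cytometry with 488 nm excitation read lipid droplets at 500-530 nm and cells at 575-640 nm. Percent activity was relative to 20 uM Triacsin C.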
# [1] = measured here: cell number channel AC50, cells fed with added oleic acid
# [2] = measured here: lipid fluorescence (Fed channel) AC50, cells fed with added oleic acid
Structure (SMILES),cell number change [%],AC50 [1],AC50 [2]
Cc1cc(NC(=O)CCC(=O)N(Cc2ccco2)C(C(=O)NC2CCCC2)c2ccccc2C)no1 (configuration not stated),-42.7,"18.4 µM [falling, partial curve, poor fit]","18.4 µM [falling, partial curve]"
NS(=O)(=O)c1ccc(CCNC(=O)CSc2nnc3ccccn23)cc1,-6.5,,
Cc1cc(C)n2nc(S(=O)(=O)N(C)c3ccccc3)nc2n1,,,"6.51 µM [rising, single point]"
COc1ccccc1NS(=O)(=O)c1cccc(NC(=O)C2CC2)c1,,,"5.8 µM [rising, partial curve, poor fit]"
C#CCOCCOCCOCCNc1nc(N2CCN(C(=O)[C@H]([C@@H](C)O)n3cc(CCCCN)nn3)CC2)nc(N2CCN(C(=O)[C@H](CCCCN)n3cc(CCCC)nn3)CC2)n1,-16.7,,"3.66 µM [rising, full curve]"
CCN1CCCC1CN(Cc1cc2ccc(C)cc2[nH]c1=O)C(=S)Nc1cccc(OC)c1 (configuration not stated),10.6,,"0.206 µM [rising, partial curve, poor fit]"
CCCCn1nnnc1NCc1ccc(C)cc1,7.72,,"1.16 µM [falling, full curve, poor fit]"
O=C(Nc1ccc(S(=O)(=O)NC2=NCCCCC2)cc1)c1ccc(C(F)(F)F)cc1,-13.3,,
CCOC(=O)CNC(=O)CCNS(=O)(=O)c1ccc2c(c1)c(=O)n(C)c(=O)n2C,17.9,,"0.731 µM [falling, single point]"
CNC(=O)c1c(NC(=O)c2ccco2)sc2c1CCC2,-14.2,,"6.51 µM [falling, single point]"
O=C(CCSc1nc(-c2ccco2)cc(C(F)(F)F)n1)NCC1CCCO1 (configuration not stated),-8.38,,"0.0116 µM [rising, full curve, poor fit]"
CC(=O)N(c1c(C)n(C)n(-c2ccccc2)c1=O)C1(C(=O)NC2CCCCC2)CCCCC1,-4.14,,"29.1 µM [falling, single point]"
CCOC(=O)C1C(=O)NCC1c1ccccc1 (configuration not stated),-34.8,"23.1 µM [falling, partial curve, poor fit]","25.9 µM [falling, partial curve]"
CCOC(=O)c1cc(-c2ccccc2)n(CCC(=O)N2CCN(c3ccccn3)CC2)c1C,-29.4,,"11.6 µM [falling, partial curve]"
Cc1cc(NC(=O)CSc2nc3c(sc4ccccc43)c(=O)n2CCCN2CCOCC2)n[nH]1,114,"2.06 µM [rising, full curve]","0.461 µM [rising, full curve]"
O=C(CSc1nnc(CN2CCOCC2)n1-c1ccc(Cl)cc1)Nc1ccc2c(c1)OCO2,38.7,"0.013 µM [rising, full curve]","1.16 µM [rising, partial curve]"
CCc1c(C(=O)NCc2ccccc2Cl)[nH]c(C)c1C(C)=O,-9.62,,
O=C(CC1C(=O)NCCN1Cc1ccccc1C(F)(F)F)NCCN1CCOCC1 (configuration not stated),11.6,,"3.66 µM [rising, full curve, poor fit]"
CC(C)c1ccc(NC2CCCN(C(=O)c3cccnc3)C2)cc1 (configuration not stated),38.7,"11.6 µM [rising, partial curve]","16.4 µM [rising, partial curve]"
O=C(NC1CCCCC1)c1cccs1,12.8,,"29.1 µM [rising, single point]"

# Three records picked at random from those above:
Structure (SMILES),cell number change [%],AC50 [1],AC50 [2]
O=C(CC1C(=O)NCCN1Cc1ccccc1C(F)(F)F)NCCN1CCOCC1 (configuration not stated),11.6,,"3.66 µM [rising, full curve, poor fit]"
CCc1c(C(=O)NCc2ccccc2Cl)[nH]c(C)c1C(C)=O,-9.62,,
Cc1cc(NC(=O)CCC(=O)N(Cc2ccco2)C(C(=O)NC2CCCC2)c2ccccc2C)no1 (configuration not stated),-42.7,"18.4 µM [falling, partial curve, poor fit]","18.4 µM [falling, partial curve]"

# Next records follow:

Structure (SMILES),cell number change [%],AC50 [1],AC50 [2]
CC(C)NC(=O)CSc1nnc2sc3ccccc3n12,,"0.651 µM [falling, single point]","0.651 µM [falling, single point]"
O=C(c1cccs1)N1CCc2ccccc21,74.3,,
CC(C)CNC(CC(=O)Nc1cccc([N+](=O)[O-])c1)C(=O)O (configuration not stated),15,"6.51 µM [falling, single point]","1.3 µM [rising, partial curve]"
Cc1ccc(S(=O)(=O)C(C#N)c2nc3ccccc3nc2N2CCN(C)CC2)cc1C (configuration not stated),-15.2,,"20.6 µM [falling, partial curve]"
Cc1ccc(C)c(CN2C(=O)COc3ccc(C(=O)c4ccccc4C(=O)O)cc32)c1,17.1,,"0.651 µM [falling, single point]"
C=CCc1ccccc1OCC(O)CNC1CCCC1 (configuration not stated),-11.5,,"6.51 µM [rising, partial curve]"
O=c1c(Cl)nc2cc(Cl)ccc2n1CCNc1ncc(C(F)(F)F)cc1Cl,-0.197,,"0.82 µM [falling, partial curve]"
CC(C)(C)OC(=O)NC1CC2CCCC(C1)N2Cc1ccccc1 (configuration not stated),2.91,,"25.9 µM [rising, single point]"
CC1CCCCC1NC(=O)COC(=O)C12CC3CC(CC(Cl)(C3)C1)C2 (configuration not stated),-9.29,,
CC1(C)Cc2ccccc2-c2nc(NCCCO)n(-c3ccccc3)c(=O)c21,4.76,,"9.2 µM [rising, partial curve, poor fit]"
COc1ccc(N(/N=C2\Sc3ccccc3C2=O)C(C)=O)cc1,,"0.116 µM [rising, full curve, poor fit]","0.103 µM [rising, full curve, poor fit]"
C[C@H]1CN=C(N(C)C)N1CCCCc1ccccc1,18.5,,"29.1 µM [rising, single point]"
CC(=O)N1C(c2ccccc2O)C[C@]2(C)CC(=O)NC12 (some centres not stated),-3.38,,"32.6 µM [falling, single point]"
CC(=O)Nc1ccc(Nc2nc(-c3sc(NC(C)=O)nc3C)cs2)cc1,,,"16.4 µM [falling, single point]"
O=C(Nc1ccc(O)cc1C(=O)O)c1ccc2c(c1)C(=O)N(Cc1ccco1)C2=O,,"0.116 µM [falling, full curve, poor fit]","4.61 µM [falling, single point]"
CC(C)(C)c1cc2cccnc2n1Cc1cccc(F)c1,11.5,"2.59 µM [rising, partial curve, poor fit]",
COc1cc(C(=O)OCc2csc(CC(=O)Nc3ccccc3C)n2)ccc1OCC(C)C,-36.9,"4.11 µM [falling, partial curve, poor fit]","5.8 µM [falling, partial curve, poor fit]"
O=[N+]([O-])c1cccc(OCC(O)CN2CCN(S(=O)(=O)c3cc(Cl)ccc3Cl)CC2)c1 (configuration not stated),,,"29.1 µM [falling, single point]"
CCC(OC(=O)C1=Cc2ccccc2OC1)C(=O)NCc1ccco1 (configuration not stated),5.4,,"0.146 µM [falling, full curve, poor fit]"
CC1(C)CC(=O)C=C(Nc2ccccc2O)C1,-10.7,"2.59 µM [rising, single point]",

Structure (SMILES),cell number change [%],AC50 [1],AC50 [2]
Cc1csc(NC(=O)C2CCCCN2S(=O)(=O)c2ccccc2)n1 (configuration not stated),,"0.116 µM [rising, single point]","0.116 µM [rising, single point]"
Cc1nn(C)cc1/C=N/NC(=O)C1(O)c2ccccc2-c2ccccc21,,"6.51 µM [rising, single point]","4.11 µM [rising, single point]"
COc1ccc(Cl)cc1NC(=O)c1nnn(CC(=O)Nc2cc(C)cc(C)c2)c1N,64.5,"29.1 µM [rising, single point]","29.1 µM [rising, single point]"
CCOC(=O)C1=C(COC(=O)/C=C/c2ccccc2)NC(=O)NC1C (configuration not stated),,,"0.116 µM [rising, full curve, poor fit]"
CCOC(=O)c1cc2c(=O)n3ccccc3nc2n(C(C)C)c1=NC(=O)c1ccncc1,-17.3,,
CCC(C)Sc1nc2c([nH]c3ccccc32)c(=O)n1C (configuration not stated),,,"0.517 µM [rising, full curve]"
COc1ccc(N=c2ssnc2Cl)cc1,-78,"20.6 µM [falling, partial curve]","20.6 µM [falling, partial curve]"
Cn1c(SCC(=O)OCc2ccccc2)nnc1-c1ccco1,-14.4,,
COc1ccc2[nH]c(C(=O)N3CCCN(Cc4ccc(F)cc4)CC3)cc2c1,17.3,,"3.66 µM [rising, partial curve]"
O=C(CN1C(=O)c2ccccc2S1(=O)=O)NCc1cccs1,19.6,,"0.58 µM [falling, full curve, poor fit]"
CC(C)NC(=O)CSCc1ccccc1Cl,-17.7,,"11.6 µM [falling, partial curve]"
Cc1ccc(-n2nc(C(=O)O)nc2-c2ccccc2)cc1,7.61,,
Cc1ccc(NCC(=O)N=Nc2c(O)[nH]c3ccc([N+](=O)[O-])cc23)cc1,-30.7,"16.4 µM [falling, single point]","20.6 µM [falling, single point]"
COc1ccc(NC(=O)COC(=O)c2ccco2)c([N+](=O)[O-])c1,0.244,,
CN1C(=O)c2ccccc2C(C(=O)NCC2CCCO2)C1c1c[nH]c2ccccc12 (configuration not stated),-2.61,,"3.66 µM [falling, partial curve]"
CC1CCCCC1NC(=O)NC(=O)COC(=O)C1=NN(c2ccccc2)C(=O)CC1 (configuration not stated),-9.29,,"18.4 µM [rising, single point]"
Cc1[nH]c2ccc(C(=O)OC(C)C(=O)NCc3ccccc3)cc2c1C (configuration not stated),-0.668,,"29.1 µM [falling, single point]"
COC(=O)c1cccc(-n2sc3ccccc3c2=O)c1,-83.6,"4.61 µM [falling, full curve]","4.61 µM [falling, single point]"
